For 90 compounds, intracellular bacterial bioluminescence results are on record in the supplement of paper PMC12578635.

Some of the results follow. No stated cut-off is given here; in the data, active = 150% or more and inactive = the rest. Most values come without repeats; read them as rough.

In the assay the test system is Staphylococcus aureus JE2-lux inside RAW 264.7 macrophages. As to the kind of experiment: intracellular bacterial bioluminescence relative to DMSO vehicle; higher = higher intracellular bacterial metabolic activity. The note with it: 10 µM; treatment time 4 h; gentamicin 50 µg/ml.
In the case of `CCOC(=O)c1sc2nc(C)nc(Oc3cccc(OC)c3)c2c1C`, the intracellular bacterial bioluminescence was inactive: 66.7%.

Take `COc1ccc2cc(C(=O)N3CCN(c4cc(C)nc(C)n4)CC3)n(C)c2c1`: the intracellular bacterial bioluminescence is inactive: 108%.

Regarding `CC1C(=O)N2CCCc3cc(NC(=O)C(=O)NCCC4=CCCCC4)cc1c32` (stereo not given), the intracellular bacterial bioluminescence was inactive: 105%.

`CCCCOC(=O)c1ccc(NC(=O)c2cc(-c3ccc4c(c3)OCCO4)on2)cc1`: the intracellular bacterial bioluminescence is inactive: 104%.

With `Cn1c(=O)[nH]c2cc(-c3noc(CNC(=O)c4ccccc4)n3)ccc21`, the intracellular bacterial bioluminescence is inactive: 106%.

Turning to `CC(=O)Nc1cccc(NC(=O)C(=O)Nc2ccc3c(c2)N(C(=O)C2CC2)CCC3)c1`, the intracellular bacterial bioluminescence was inactive: 55%.

For the compound `COc1ccc(C(=O)N2c3cc(CNC(=O)c4cc(CC(C)C)on4)ccc3CC2C)cc1` (stereo not given), the intracellular bacterial bioluminescence is inactive: 52.1%.

`Cc1csc(SCc2cc(=O)c(OC(=O)Cc3ccc(F)cc3)co2)n1`: the intracellular bacterial bioluminescence is inactive: 84.1%.

As for `Cc1nc2ccccc2c(=O)n1-c1ccc(NS(=O)(=O)c2ccc3c(c2)OCCO3)cc1`, the intracellular bacterial bioluminescence is inactive: 125%.

On to `CCOc1ccc(N2CCn3c2nc2c3c(=O)n(CC(=O)O)c(=O)n2C)cc1`, for which the intracellular bacterial bioluminescence was inactive: 110%.

Take `O=C(CSC1=NS(=O)(=O)c2cc(F)ccc2N1)NCc1ccc2c(c1)OCO2`: the intracellular bacterial bioluminescence was inactive: 139%.

On to `COc1ccc(Cc2nnc3sc(SCC(=O)Nc4ccccc4)nn3c2=O)cc1OC`, for which the intracellular bacterial bioluminescence is inactive: 84.5%.

Turning to `CCOc1ccc(CCNC(=O)CN2c3ccccc3S(=O)(=O)c3ccccc32)cc1OCC`, the intracellular bacterial bioluminescence is inactive: 75.2%.

As to `CCOC(=O)C1CCCN(c2ncnc3scc(-c4ccc(Cl)cc4)c23)C1` (stereo not given), the intracellular bacterial bioluminescence is inactive: 63.7%.

As to `Cn1c(=O)c2c(nc3n2CC(C(C)(C)C)=NN3CCN2CCOCC2)n(C)c1=O`, the intracellular bacterial bioluminescence was inactive: 132%.

For the compound `COc1cccc(-c2noc(NCCC(C)C)n2)c1`, the intracellular bacterial bioluminescence was inactive: 106%.

For the compound `Cc1ccc(-n2nnc3c(SCC(=O)N4CCOCC4)ncnc32)cc1`, the intracellular bacterial bioluminescence is inactive: 107%.

Consider `CCOC(=O)c1csc(-n2nc3c(c2C(F)(F)F)CCCCC3)n1`, for which the intracellular bacterial bioluminescence is inactive: 44.6%.

Take `NC(=O)c1ccccc1NC(=O)CCn1c(=O)oc2ccccc21`: the intracellular bacterial bioluminescence was inactive: 87.8%.

With `O=C(O)c1ccc2c(c1)C(=O)N(C(CC1=C[NH2+]C=N1)C(=O)[O-])C2=O` (stereo not given), the intracellular bacterial bioluminescence was inactive: 94.2%.

On to `CC(c1ccccc1)n1c(CN2CCCCC2)nc2ccccc21` (stereo not given), for which the intracellular bacterial bioluminescence is inactive: 78.9%.

For the compound `Cc1ccc(C)c(CC(=O)Nc2nc3ccc4nc(C)sc4c3s2)c1`, the intracellular bacterial bioluminescence is inactive: 71.4%.

With `Cc1cc(C)c(C(=O)c2sc3nc(C)cc(C)c3c2N)c(C)c1`, the intracellular bacterial bioluminescence is inactive: 86.7%.

With `O=C(Nc1ccccc1F)N1CCC(c2nc3cc(Cl)ccc3[nH]2)CC1`, the intracellular bacterial bioluminescence is inactive: 111%.

Regarding `Cc1cc(NC(=O)CSc2nnc(NC(=O)C3CC(=O)N(c4ccc(C)c(C)c4)C3)s2)no1` (stereo not given), the intracellular bacterial bioluminescence was inactive: 88.6%.

Regarding `Cc1nn2cc(C#N)c(-c3ccccc3)nc2c1-c1ccccc1`, the intracellular bacterial bioluminescence is inactive: 119%.

`CCn1c2c(c(=O)[nH]c1=O)C(c1cccs1)C1=C(COC1=O)N2` (stereo not given): the intracellular bacterial bioluminescence is inactive: 106%.

As to `CCCCCn1c(SCC(=O)CC(=O)OCC)nc2cc(C(=O)NCc3ccco3)ccc2c1=O`, the intracellular bacterial bioluminescence is inactive: 89.2%.

For the compound `CCOc1ccccc1NCc1nc2nc(C)cc(C)n2n1`, the intracellular bacterial bioluminescence was inactive: 84.9%.

Consider `NC(=O)c1cc2cc(Cl)ccc2o/c1=N\c1cccc(C(F)(F)F)c1`, for which the intracellular bacterial bioluminescence is inactive: 88.3%.

`COCCn1c(=O)[nH]c2ccccc2/c1=N\C(=O)Nc1ccccc1C#N`: the intracellular bacterial bioluminescence is inactive: 117%.

In the case of `COc1cccc(-c2cc(C(F)(F)F)n3ncc(C(=O)O)c3n2)c1`, the intracellular bacterial bioluminescence is inactive: 111%.

Take `O=c1oc2cc([N+](=O)[O-])ccc2c2ccc([N+](=O)[O-])cc12`: the intracellular bacterial bioluminescence is inactive: 94.2%.

In the case of `COc1ccc(S(=O)(=O)N2CCOCC2)cc1C(=O)NCc1ccc2c(c1)OCO2`, the intracellular bacterial bioluminescence is inactive: 106%.

With `COc1ccc2nc(Nc3nc4c(s3)CCCC4)sc2c1`, the intracellular bacterial bioluminescence was inactive: 68.8%.

Regarding `Cc1nc(Nc2ccc(NS(=O)(=O)c3ccc(F)cc3F)cc2)cc(N(C)C)n1`, the intracellular bacterial bioluminescence was inactive: 92.8%.

For `Cc1ccc(C)c2[nH]c(=O)c(CCNC(=O)c3ccccc3F)cc12`, the intracellular bacterial bioluminescence was inactive: 104%.

`CCOc1ccc2c(c1)sc1nc(-c3ccc(C(C)C)cc3)c(NCCOC)n12`: the intracellular bacterial bioluminescence is inactive: 97.4%.

With `CCCn1ncc(C)c1NC(=O)Cn1nc2c(C)cc3ccc(OC)cc3n2c1=O`, the intracellular bacterial bioluminescence was inactive: 91.3%.

`CCOc1ccc(NC(=O)Cn2c(=O)c3cccnc3n(-c3ccccc3)c2=O)cc1`: the intracellular bacterial bioluminescence is inactive: 105%.

As for `Cc1c(S(=O)(=O)N2CCC(c3nnc(C(=O)Nc4ccccc4)s3)CC2)cnn1C(F)F`, the intracellular bacterial bioluminescence is inactive: 85.2%.

Consider `COc1ccc(CC(=O)N2CCN(c3c(C)n(C)c(=O)n(C)c3=O)CC2)cc1OC`, for which the intracellular bacterial bioluminescence was inactive: 126%.

Consider `Cc1ccccc1-n1cc(-c2ccccc2)c2c(NC3CCCCC3)ncnc21`, for which the intracellular bacterial bioluminescence was inactive: 108%.

For the compound `O=C(c1cccnc1)N1CCc2c([nH]c3ccccc23)C1c1ccc(Cl)cc1` (stereo not given), the intracellular bacterial bioluminescence is inactive: 95.4%.

In the case of `O=S(=O)(c1cn(Cc2noc(-c3cc4cc(Cl)ccc4[nH]3)n2)cn1)N1CCOCC1`, the intracellular bacterial bioluminescence is inactive: 117%.

Consider `CCc1noc2nc(C(=O)O)nc(N3CCOCC3)c12`, for which the intracellular bacterial bioluminescence is inactive: 117%.

Turning to `CC1(C)Cc2c(sc(NC(=O)c3ccc4ncsc4c3)c2C(N)=O)C(C)(C)N1`, the intracellular bacterial bioluminescence is inactive: 106%.

Regarding `Cc1cccc(C2Oc3ccccc3C3CC(c4cccc(NS(C)(=O)=O)c4)=NN32)c1` (stereo not given), the intracellular bacterial bioluminescence was inactive: 91.3%.

For the compound `COCCNC(=O)c1nn(C)c2c1CCc1ccccc1-2`, the intracellular bacterial bioluminescence was inactive: 80.3%.

For `COc1ccc(Cl)c2sc(N3CCN(C(=O)c4cccc(N5C(=O)CCC5=O)c4)CC3)nc12`, the intracellular bacterial bioluminescence was inactive: 129%.

As for `COc1cccc(C(=O)NCC(=O)N/N=C/c2cccs2)c1`, the intracellular bacterial bioluminescence is inactive: 94.7%.

For the compound `CCc1cc2c(=O)n(-c3ccc(Cl)cc3)c(SCC(=O)c3cccs3)nc2s1`, the intracellular bacterial bioluminescence was inactive: 109%.

As to `Cc1cc(C(=O)NC(c2ccccc2)c2ccnn2C)c2cccc(Cl)c2n1` (stereo not given), the intracellular bacterial bioluminescence was inactive: 103%.

Regarding `O=C(CSC1=NS(=O)(=O)c2ccccc2N1)Nc1ccc2c(c1)OCCO2`, the intracellular bacterial bioluminescence is inactive: 128%.

`CC(=O)c1c(C)nn(CC(O)COc2ccc(C(=O)c3ccc(Cl)cc3)cc2)c1C` (stereo not given): the intracellular bacterial bioluminescence is inactive: 63.4%.

Consider `Clc1cccc2sc(N3CCN(c4ccccc4)CC3)nc12`, for which the intracellular bacterial bioluminescence is inactive: 79.7%.

Regarding `CCOc1ccc(Oc2nc(C)nc3sc4c(c23)CCCC4)cc1`, the intracellular bacterial bioluminescence is inactive: 116%.

`CCS(=O)(=O)c1ccccc1C(=O)Nc1nc2c(s1)C(=O)CC(C)(C)C2`: the intracellular bacterial bioluminescence was inactive: 105%.

Regarding `O=C(C1CCCN(c2nccnc2Oc2ccccc2)C1)N1CCN(c2ccccc2)CC1` (stereo not given), the intracellular bacterial bioluminescence is inactive: 32.9%.

For the compound `O=c1[nH]cc(S(=O)(=O)N2CCc3ccccc3C2)c(=O)[nH]1`, the intracellular bacterial bioluminescence is inactive: 115%.

As to `Nc1c(C(=O)Nc2ccc(Br)cc2)sc2[nH]c(=O)c(C(=O)O)cc12`, the intracellular bacterial bioluminescence is inactive: 77.5%.

For `Cc1ccc2c(c1)cc(C)c1nnc(SCC(=O)Nc3cc(C)on3)n12`, the intracellular bacterial bioluminescence was inactive: 107%.

As for `Cc1noc(C)c1C(=O)Nc1ccccc1NC(=O)c1ccccn1`, the intracellular bacterial bioluminescence is inactive: 117%.

With `Cc1c(CCC(C)C)c(NCCN(C)C)n2c(nc3ccccc32)c1C#N`, the intracellular bacterial bioluminescence was inactive: 116%.

With `CSc1nc2ccc3nc(NC(=O)CN4C(=O)c5ccccc5C4=O)sc3c2s1`, the intracellular bacterial bioluminescence was inactive: 69.9%.

As for `Cn1c(=O)c(O)c2c3c(cccc31)C(=O)c1ccccc1-2`, the intracellular bacterial bioluminescence is inactive: 98%.

Turning to `O=C(Nc1ccc(F)cc1F)c1nnc(C2CCN(C(=O)C3CCCCC3)CC2)s1`, the intracellular bacterial bioluminescence is inactive: 78%.

For `O=C(Nc1cc(C(F)(F)F)cc(C(F)(F)F)c1)c1cnc2sccn2c1=O`, the intracellular bacterial bioluminescence was inactive: 103%.

`CCOC(=O)c1cccc(NC(=O)CSc2nnc3ccc(C(=O)NCc4ccccc4)cn23)c1`: the intracellular bacterial bioluminescence was inactive: 71.7%.

With `Cc1cc(=O)[nH]c2c(C)cc(S(=O)(=O)Nc3ccc(O)cc3)cc12`, the intracellular bacterial bioluminescence is inactive: 118%.

Consider `COc1cc(/C=C(\C#N)c2nc(-c3ccc(F)cc3)cs2)cc([N+](=O)[O-])c1O`, for which the intracellular bacterial bioluminescence is inactive: 69.5%.

Consider `O=C(CN1CCC(n2cnc3cccnc32)CC1)Nc1nccs1`, for which the intracellular bacterial bioluminescence is inactive: 60%.

On to `CCn1cc(C(=O)Nc2ccc(F)c(F)c2)c2nn(-c3ccccc3)c(=O)c-2c1`, for which the intracellular bacterial bioluminescence is inactive: 79.4%.

Regarding `COc1ccc(Cl)cc1S(=O)(=O)Nc1ccc(-c2nnc(-c3ccccc3)o2)cc1`, the intracellular bacterial bioluminescence was inactive: 111%.

Turning to `COC(=O)c1ccccc1-c1ccc(/C=C/c2cc(C(=O)O)c3ccccc3n2)o1`, the intracellular bacterial bioluminescence is inactive: 111%.

`C=CCn1ccn(-c2cccc(Cl)c2)c(=O)c1=O`: the intracellular bacterial bioluminescence was inactive: 112%.

`Cc1ccccc1-c1nc2n(CC(=O)Nc3nccs3)c(C)cc(=O)n2n1`: the intracellular bacterial bioluminescence is inactive: 111%.

Take `Cc1ccc2nc(NNC(=O)c3ccc(S(=O)(=O)N4CCC(C)CC4)cc3)sc2c1`: the intracellular bacterial bioluminescence is inactive: 79%.

Consider `Clc1ccc(-c2nnn3c2nc(NCc2cccs2)c2ccccc23)cc1`, for which the intracellular bacterial bioluminescence is inactive: 115%.

Consider `Cc1nnc(NC(=O)CSc2nc(-c3ccccc3C)nc3cc(=O)[nH]n23)s1`, for which the intracellular bacterial bioluminescence is inactive: 79.5%.

With `CCOC(=O)c1sc2nc(NC(=O)c3ccc(N(C)C)cc3)sc2c1C`, the intracellular bacterial bioluminescence is inactive: 98.6%.

With `COc1ccc(OC)c(NS(=O)(=O)c2cc(-c3ccn[nH]3)cs2)c1`, the intracellular bacterial bioluminescence is inactive: 101%.

For `O=C(CN1C(=O)S/C(=C\c2ccccc2)C1=O)NCCN1C(=O)CSC1=O`, the intracellular bacterial bioluminescence is inactive: 77.4%.

Consider `Cc1cc(C)c2sc(NNC(=O)C3COc4ccccc4O3)nc2c1` (stereo not given), for which the intracellular bacterial bioluminescence was inactive: 35.5%.

Turning to `Cc1nn(-c2ccccc2)c2[nH]c(=O)c(CNC(c3ccccc3)c3ccco3)cc12` (stereo not given), the intracellular bacterial bioluminescence is inactive: 134%.

On to `O=C(Nc1ccc(Cl)cn1)c1ccc(SCCN2CCOCC2)nc1`, for which the intracellular bacterial bioluminescence was inactive: 77.9%.

For the compound `O=C(Cn1c2ccccc2c(=O)c2ccccc21)Nc1ccccc1F`, the intracellular bacterial bioluminescence was inactive: 95%.

In the case of `COc1ccc2c(C)cc(SCC(=O)Nc3c(C)cccc3C)nc2c1`, the intracellular bacterial bioluminescence was inactive: 107%.

Take `N#Cc1c(NC(=O)CSc2nnc3sc4ccccc4n23)sc2c1CCC2`: the intracellular bacterial bioluminescence is inactive: 62.3%.

For `CCc1ccc(-n2nc(-c3nc(-c4ccncc4)no3)c3ccccc3c2=O)cc1`, the intracellular bacterial bioluminescence was inactive: 71.1%.
